Laboratory results as given in publication PMC12700540.

The chains behind the UniProt entries cited, without tags or fusion partners.
UniProt P70168: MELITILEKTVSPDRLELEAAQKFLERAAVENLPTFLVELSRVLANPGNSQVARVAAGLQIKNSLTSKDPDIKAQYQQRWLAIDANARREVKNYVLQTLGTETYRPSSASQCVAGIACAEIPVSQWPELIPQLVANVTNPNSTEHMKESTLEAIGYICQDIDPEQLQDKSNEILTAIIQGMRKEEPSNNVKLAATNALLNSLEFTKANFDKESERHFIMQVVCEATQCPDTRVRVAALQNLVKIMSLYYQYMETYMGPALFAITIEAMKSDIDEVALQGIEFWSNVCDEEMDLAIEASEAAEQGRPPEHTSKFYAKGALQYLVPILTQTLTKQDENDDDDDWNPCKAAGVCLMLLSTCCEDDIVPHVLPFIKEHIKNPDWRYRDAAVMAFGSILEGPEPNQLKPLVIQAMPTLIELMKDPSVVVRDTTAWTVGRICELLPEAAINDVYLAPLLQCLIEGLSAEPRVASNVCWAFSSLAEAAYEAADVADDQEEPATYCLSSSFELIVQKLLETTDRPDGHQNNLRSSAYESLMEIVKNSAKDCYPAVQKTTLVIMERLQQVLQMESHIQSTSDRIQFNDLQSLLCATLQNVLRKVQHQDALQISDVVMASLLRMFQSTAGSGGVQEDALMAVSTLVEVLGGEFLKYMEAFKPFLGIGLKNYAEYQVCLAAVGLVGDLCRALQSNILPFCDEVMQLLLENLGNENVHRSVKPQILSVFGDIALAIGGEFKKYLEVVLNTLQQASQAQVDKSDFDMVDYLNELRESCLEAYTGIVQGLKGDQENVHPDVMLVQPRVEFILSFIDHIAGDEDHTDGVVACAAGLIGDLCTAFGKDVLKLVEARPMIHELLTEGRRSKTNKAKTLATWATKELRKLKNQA

Key:
[1] = target: T1, S100a9 lactylated at lysine 26 (S100a9K26la) (mouse (endogenous in neutrophils)) (UniProt P31725); assay: affinity purification with mass spectrometry; co-IP coupled to MS of S100a9K26la from neutrophils
T1 sequence (chain, lactyl-lysine at 26 (K26la)): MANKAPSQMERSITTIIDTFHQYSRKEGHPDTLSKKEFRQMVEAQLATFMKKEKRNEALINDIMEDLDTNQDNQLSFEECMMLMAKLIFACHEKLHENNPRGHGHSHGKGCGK

[2] = target: T1, S100a9 lactylated at lysine 26 (S100a9K26la) (mouse (endogenous in neutrophils)); assay: affinity purification with mass spectrometry; MS of anti-S100a9K26la immunoprecipitates (against IgG) from BM neutrophils 1 day after MI/R

Molecule	binding [1]	binding [2]
importin β1 (from UniProt P70168 1-876)	binds	–
dihydrolipoyllysine-residue acetyltransferase (DLAT) (enzyme, UniProt Q8BMF4 86-642) SLPPHQKVPLPSLSPTMQAGTIARWEKKEGEKISEGDLIAEVETDKATVGFESLEECYMAKILVPEGTRDVPVGSIICITVEKPQDIEAFKNYTLDLAAAAAPQAAPAAAPAPAAAPAAPSASAPGSSYPTHMQIVLPALSPTMTMGTVQRWEKKVGEKLSEGDLLAEIETDKATIGFEVQEEGYLAKILVPEGTRDVPLGAPLCIIVEKQEDIAAFADYRPTEVTSLKPQAAPPAPPPVAAVPPTPQPVAPTPSAAPAGPKGRVFVSPLAKKLAAEKGIDLTQVKGTGPEGRIIKKDIDSFVPSKAAPAAAAAMAPPGPRVAPAPAGVFTDIPISNIRRVIAQRLMQSKQTIPHYYLSVDVNMGEVLLVRKELNKMLEGKGKISVNDFIIKASALACLKVPEANSSWMDTVIRQNHVVDVSVAVSTPAGLITPIVFNAHIKGLETIASDVVSLASKAREGKLQPHEFQGGTFTISNLGMFGIKNFSAIINPPQACILAIGASEDKLIPADNEKGFDVASVMSVTLSCDHRVVDGAVGAQWLAEFKKYLEKPITMLL	–	binds

No constants are given. Whether binding was seen depends on the method and setting. Binding seen in cells or lysates may run through a third protein. Here binding means that the protein was enriched with, or labelled near, the bait; the list need not be complete.
